Targets include Tailor-C R295A (UniProt Q9VI58); Tailor-C R327K (UniProt Q9VI58); Tailor-C (UniProt Q9VI58); Tailor-C R295K (UniProt Q9VI58); Tailor-C H294A (UniProt Q9VI58); Tailor-C N347A (UniProt Q9VI58); Tailor-C R327A (UniProt Q9VI58).
Holding throughout (experiment): EMSA
Settings in all cases: no Mg2+ added; EMSA: 25 mM Tris-HCl pH 7.2, 100 mM NaCl, 5 mM DTT, 500 nM Cy5-RNA, 0-2.5 uM protein, 30 min on ice; 6% native gel at 4 C; recombinant protein; residues 202-560; protein details: 8xHis-SUMO tag removed by ULP1; label: 5'-Cy5
In general terms: A gel shift assay detects complexes by their altered migration in electrophoresis.

By UniProt entry, the sequences of proteins in these tests, tags left out. Residues count along the entry.
UniProt Q9VI58, 202-560 R295A: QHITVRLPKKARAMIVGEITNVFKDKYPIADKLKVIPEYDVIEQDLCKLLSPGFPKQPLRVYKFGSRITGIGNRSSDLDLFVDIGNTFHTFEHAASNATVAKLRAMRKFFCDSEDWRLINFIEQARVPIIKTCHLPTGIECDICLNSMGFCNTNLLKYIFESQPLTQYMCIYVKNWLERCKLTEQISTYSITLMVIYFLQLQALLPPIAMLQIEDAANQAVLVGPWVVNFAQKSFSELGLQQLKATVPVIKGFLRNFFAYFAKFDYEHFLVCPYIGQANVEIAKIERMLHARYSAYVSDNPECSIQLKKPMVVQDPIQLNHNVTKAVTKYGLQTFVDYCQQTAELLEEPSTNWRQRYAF
UniProt Q9VI58, 202-560 R327K: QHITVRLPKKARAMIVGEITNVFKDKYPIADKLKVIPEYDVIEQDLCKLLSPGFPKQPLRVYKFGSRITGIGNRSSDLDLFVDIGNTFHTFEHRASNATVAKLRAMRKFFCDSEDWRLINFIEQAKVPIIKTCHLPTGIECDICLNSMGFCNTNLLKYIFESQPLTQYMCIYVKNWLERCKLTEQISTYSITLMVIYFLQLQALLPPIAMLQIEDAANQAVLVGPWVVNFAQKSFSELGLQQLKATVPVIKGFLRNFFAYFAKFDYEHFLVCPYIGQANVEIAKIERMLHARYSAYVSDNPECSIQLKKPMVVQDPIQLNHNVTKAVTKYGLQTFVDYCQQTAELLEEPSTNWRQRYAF
UniProt Q9VI58, 202-560: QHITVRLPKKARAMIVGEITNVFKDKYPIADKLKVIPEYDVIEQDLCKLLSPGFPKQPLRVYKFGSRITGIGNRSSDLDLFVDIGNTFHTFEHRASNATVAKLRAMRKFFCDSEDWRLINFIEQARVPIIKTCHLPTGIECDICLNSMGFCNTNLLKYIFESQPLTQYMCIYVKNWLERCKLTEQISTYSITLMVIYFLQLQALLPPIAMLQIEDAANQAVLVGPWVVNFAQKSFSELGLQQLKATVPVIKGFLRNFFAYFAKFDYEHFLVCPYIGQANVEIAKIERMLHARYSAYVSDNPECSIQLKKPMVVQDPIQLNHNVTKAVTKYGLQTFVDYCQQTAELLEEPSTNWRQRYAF
UniProt Q9VI58, 202-560 R295K: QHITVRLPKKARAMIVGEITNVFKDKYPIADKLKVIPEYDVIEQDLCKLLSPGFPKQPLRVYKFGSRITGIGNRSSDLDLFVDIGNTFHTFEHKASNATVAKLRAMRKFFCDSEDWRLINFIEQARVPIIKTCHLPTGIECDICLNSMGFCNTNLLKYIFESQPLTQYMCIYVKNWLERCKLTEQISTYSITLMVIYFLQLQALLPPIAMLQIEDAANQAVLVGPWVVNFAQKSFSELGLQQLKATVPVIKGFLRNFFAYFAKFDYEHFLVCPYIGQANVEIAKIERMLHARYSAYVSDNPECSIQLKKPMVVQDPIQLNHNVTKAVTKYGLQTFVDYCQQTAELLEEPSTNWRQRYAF
UniProt Q9VI58, 202-560 H294A: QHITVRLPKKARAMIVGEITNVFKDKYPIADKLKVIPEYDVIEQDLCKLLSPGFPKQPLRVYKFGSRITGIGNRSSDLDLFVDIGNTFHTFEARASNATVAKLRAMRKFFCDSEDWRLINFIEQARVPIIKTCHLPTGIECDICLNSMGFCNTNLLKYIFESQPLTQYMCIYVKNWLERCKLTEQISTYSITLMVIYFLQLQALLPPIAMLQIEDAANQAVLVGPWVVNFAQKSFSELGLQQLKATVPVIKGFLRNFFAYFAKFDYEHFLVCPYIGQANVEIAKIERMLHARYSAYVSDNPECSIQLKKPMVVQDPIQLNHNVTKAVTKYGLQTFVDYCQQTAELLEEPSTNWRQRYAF
UniProt Q9VI58, 202-560 N347A: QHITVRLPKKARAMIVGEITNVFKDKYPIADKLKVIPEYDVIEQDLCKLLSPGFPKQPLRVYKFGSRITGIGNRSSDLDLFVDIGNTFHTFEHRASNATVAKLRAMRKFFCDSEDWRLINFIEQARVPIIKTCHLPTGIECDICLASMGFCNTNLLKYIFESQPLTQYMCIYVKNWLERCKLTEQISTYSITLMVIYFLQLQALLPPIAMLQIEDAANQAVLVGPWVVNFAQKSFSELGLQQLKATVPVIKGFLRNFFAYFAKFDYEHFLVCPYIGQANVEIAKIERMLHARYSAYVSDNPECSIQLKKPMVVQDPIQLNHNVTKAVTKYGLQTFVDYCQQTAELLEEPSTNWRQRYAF
UniProt Q9VI58, 202-560 R327A: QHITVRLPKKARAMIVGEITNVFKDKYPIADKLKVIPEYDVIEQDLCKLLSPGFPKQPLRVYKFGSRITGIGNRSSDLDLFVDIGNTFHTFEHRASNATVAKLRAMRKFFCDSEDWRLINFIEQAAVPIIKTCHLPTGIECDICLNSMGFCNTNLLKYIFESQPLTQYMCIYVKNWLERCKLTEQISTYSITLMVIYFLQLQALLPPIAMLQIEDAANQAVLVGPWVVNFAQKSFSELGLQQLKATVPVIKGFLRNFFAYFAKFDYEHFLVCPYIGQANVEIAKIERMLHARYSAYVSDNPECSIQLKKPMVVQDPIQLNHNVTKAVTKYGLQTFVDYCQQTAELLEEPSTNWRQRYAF

For some of these results: The comparison behind a weaker result is the experiment's own reference, which may not be listed here. For some of these results: The exact form of at least one protein or probe is not confirmed. For some of these results: At least one verdict was read from the data and is not stated in words by the source.

As for CAUAUUCACAG [truncated miR-1003 (3'G)], the binding result was “binds more weakly” with Tailor-C R295A; “binds more weakly” in the data set with Tailor-C R327K; “binds” with Tailor-C; “binds more weakly” in the data set with Tailor-C R295K; “binds more weakly” in the data set with Tailor-C H294A; “binds more weakly” with Tailor-C N347A. In addition, the binding result with Tailor-C R327A was “binds more weakly”.
